We go through 1 molecule from patent publication US20210123036A1.

Chains of the proteins cited; added tags and fusions are not shown. Lines headed by an entry give the natural chain unless they say otherwise; changes in a name come on top.
UniProt P02453: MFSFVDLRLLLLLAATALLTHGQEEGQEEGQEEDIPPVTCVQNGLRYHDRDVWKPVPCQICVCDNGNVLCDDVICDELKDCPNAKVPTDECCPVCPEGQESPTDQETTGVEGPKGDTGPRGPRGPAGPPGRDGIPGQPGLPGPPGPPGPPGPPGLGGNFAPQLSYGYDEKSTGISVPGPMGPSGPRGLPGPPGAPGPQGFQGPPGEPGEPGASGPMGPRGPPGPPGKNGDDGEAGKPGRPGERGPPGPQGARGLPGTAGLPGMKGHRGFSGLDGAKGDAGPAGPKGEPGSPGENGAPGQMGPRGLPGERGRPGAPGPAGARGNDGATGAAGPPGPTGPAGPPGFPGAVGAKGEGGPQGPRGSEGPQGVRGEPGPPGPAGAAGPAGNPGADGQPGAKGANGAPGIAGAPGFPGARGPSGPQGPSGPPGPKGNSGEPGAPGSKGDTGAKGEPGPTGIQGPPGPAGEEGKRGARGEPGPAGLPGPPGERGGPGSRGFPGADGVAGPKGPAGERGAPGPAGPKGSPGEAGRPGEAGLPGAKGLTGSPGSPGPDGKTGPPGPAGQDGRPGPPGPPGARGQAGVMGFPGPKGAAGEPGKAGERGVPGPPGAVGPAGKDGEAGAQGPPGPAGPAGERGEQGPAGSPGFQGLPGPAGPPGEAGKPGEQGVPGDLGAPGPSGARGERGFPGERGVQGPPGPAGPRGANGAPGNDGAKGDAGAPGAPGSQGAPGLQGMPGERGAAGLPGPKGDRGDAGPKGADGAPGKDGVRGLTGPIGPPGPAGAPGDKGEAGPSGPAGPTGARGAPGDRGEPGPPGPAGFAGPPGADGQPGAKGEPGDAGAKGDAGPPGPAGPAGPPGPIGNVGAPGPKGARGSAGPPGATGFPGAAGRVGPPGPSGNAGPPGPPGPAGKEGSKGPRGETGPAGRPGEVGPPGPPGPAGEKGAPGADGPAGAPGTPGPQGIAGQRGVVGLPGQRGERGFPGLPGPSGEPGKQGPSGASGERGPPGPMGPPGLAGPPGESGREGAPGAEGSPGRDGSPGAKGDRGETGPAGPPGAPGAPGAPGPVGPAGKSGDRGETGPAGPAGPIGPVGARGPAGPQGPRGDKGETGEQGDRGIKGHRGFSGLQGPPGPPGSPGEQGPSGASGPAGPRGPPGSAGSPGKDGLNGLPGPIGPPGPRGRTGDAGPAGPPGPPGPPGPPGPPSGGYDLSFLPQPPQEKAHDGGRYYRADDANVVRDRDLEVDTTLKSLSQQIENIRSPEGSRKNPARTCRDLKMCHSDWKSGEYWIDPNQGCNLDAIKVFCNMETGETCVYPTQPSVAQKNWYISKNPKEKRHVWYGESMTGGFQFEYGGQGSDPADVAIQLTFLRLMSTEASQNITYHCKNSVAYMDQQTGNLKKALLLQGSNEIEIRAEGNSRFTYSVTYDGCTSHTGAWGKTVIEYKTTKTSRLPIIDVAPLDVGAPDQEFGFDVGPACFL
UniProt P02465: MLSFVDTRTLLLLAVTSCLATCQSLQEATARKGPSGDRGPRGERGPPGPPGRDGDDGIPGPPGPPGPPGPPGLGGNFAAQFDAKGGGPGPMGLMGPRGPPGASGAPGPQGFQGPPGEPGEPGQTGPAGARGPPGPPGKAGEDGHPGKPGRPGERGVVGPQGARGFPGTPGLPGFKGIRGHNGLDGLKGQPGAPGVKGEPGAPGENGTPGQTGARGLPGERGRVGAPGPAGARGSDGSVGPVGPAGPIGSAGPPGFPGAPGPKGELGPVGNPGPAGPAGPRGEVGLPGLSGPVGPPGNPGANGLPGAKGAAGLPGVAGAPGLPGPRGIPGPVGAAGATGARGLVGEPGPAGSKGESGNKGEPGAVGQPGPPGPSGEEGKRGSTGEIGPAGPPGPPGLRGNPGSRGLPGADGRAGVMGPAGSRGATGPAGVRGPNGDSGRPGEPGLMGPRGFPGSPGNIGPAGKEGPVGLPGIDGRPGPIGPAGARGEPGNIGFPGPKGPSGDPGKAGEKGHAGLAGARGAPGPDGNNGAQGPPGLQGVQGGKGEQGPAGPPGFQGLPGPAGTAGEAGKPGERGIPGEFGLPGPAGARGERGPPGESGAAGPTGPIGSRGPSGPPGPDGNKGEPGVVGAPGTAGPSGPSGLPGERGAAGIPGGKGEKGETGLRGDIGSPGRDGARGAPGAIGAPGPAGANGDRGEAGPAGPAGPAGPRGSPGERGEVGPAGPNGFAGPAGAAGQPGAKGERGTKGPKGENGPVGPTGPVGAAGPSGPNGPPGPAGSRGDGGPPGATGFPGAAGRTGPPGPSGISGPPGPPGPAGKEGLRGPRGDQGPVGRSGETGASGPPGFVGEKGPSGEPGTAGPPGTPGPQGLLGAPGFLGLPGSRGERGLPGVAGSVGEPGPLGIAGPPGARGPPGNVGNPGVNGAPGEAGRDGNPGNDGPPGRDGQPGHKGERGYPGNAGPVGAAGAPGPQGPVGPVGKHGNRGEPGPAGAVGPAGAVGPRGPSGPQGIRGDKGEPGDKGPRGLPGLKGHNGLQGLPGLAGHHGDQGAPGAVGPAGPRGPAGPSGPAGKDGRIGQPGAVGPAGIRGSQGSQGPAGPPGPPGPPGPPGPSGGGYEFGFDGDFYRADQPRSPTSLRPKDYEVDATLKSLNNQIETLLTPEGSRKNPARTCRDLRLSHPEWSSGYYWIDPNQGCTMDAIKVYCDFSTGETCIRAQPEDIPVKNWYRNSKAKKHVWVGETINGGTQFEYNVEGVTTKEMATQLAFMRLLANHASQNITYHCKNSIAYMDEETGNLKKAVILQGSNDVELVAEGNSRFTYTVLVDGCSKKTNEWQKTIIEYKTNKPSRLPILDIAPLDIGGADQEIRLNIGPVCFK

No constants are given. Whether binding was seen depends on the method and setting. In cells and extracts the contact can be indirect. Some entries that bind do so weakly or less than the wild type.

The target in this assay is Gelatin sepharose (bovine skin Type I collagen gelatin) (bovine) (UniProt P02453+P02465). In words: gelatin sepharose pull-down, SDS-PAGE.

B1: peptide 333 comprising three modules corresponding to module 3 of the CBD of MMP-2 (designed binder)
chain: EGQVVSTVYGNSEGAPCVFPFTFLGNKYESCTSAGRSDGFLWCATTANYDDDRKWGFCPHEALFTMGGNSEGAPCVFPFTFLGNKYESCTSAGRSDGKRWCATTANYDDDRKWGFCPETAMSTVGGNSEGAPCVFPFTFLGNKYESCTSAGRSDGKMWCATTANYDDDRKWGFCPDQGYSL
Take B1: the binding result is on record as “binds”.
